Assay results from PubChem BioAssay AID248 (DTP/NCI, 2004).
The list is a part of this screen's results and no random one: it is rich in T/C values a quarter to a half above the control, in often repeated tests (any T/C) and in doses without a T/C. Further doses and runs are listed elsewhere. T/C gives the treated animals as a percentage of the vehicle group. Some doses have a count of surviving animals in place of a T/C: the source holds a T/C of zero for them, seemingly a mark for toxic or unscored doses. Some survivor counts are full or nearly so, which does not show that the dose was tolerated: survival well below the control is almost never listed, so the zero probably covers shortened survival too. Counts of survivors are from the toxicity check (mostly the fifth day) where no day follows; animals may have died later. Schedules are NCI's codes, read here as Q, the interval in days (D) or hours (H), X, the number of doses. Some doses were run more than once; the results are listed from low to high. Some schedules carry Z or #; the key to these is not given. Where survival is the endpoint, this PubChem deposit counts one and a half times the control or more as active, and values a quarter to a half above the control carry no call in these data; other NCI protocols may use other cut-offs. Some T/C values are followed by the survivors on the day toxicity was checked, most often the fifth; where none is given, no animal had died by that day.

System: L1210 leukemia ip in BDF1 mice, survival T/C
Test: NCI In Vivo Anticancer Drug Screen. Data for tumor model L1210 Leukemia (intraperitoneal) in B6D2F1 (BDF1) mice
Conditions: T/C endpoint: mean survival time, higher T/C = longer survival
[1] = dose: 200.0 mg/kg/injection, schedule: Q01DX009 (ip), vehicle: saline with Tween-80
[2] = dose: 10.0 mg/kg/injection, schedule: Q01DX009 (ip), vehicle: saline
[3] = dose: 400.0 mg/kg/injection, schedule: Q04DX003 (ip), vehicle: saline with Tween-80
[4] = dose: 400.0 mg/kg/injection, schedule: Q04DX003 (ip), vehicle: saline

Question: Which results are given for `COc1cc(C2c3cc4c(cc3C(O)C(CO)C2CO)OCO4)cc(OC)c1OC` (stereo not given)?
Answer: T/C (dose: 40.0 mg/kg/injection, schedule: Q01DX Z (ip), vehicle: carboxymethylcellulose (CMC)): 127 % of control; T/C (dose: 70.0 mg/kg/injection, schedule: Q01DX Z (ip), vehicle: carboxymethylcellulose (CMC)): 126 % of control; T/C (dose: 300.0 mg/kg/injection, schedule: Q04DX003 (ip), vehicle: saline): 136 % of control; survivor count (dose: 560.0 mg/kg/injection, schedule: Q01DX Z (ip), vehicle: carboxymethylcellulose (CMC)): 6 of 6

Question: Which survivor count [1] does the source give for `CN(C)c1ccc(/C=N/NC(=O)CNC(=O)c2ccc(Cl)cc2Cl)cc1` here?
Answer: 3 of 3

Question: How did the survivor count (dose: 150.0 mg/kg/injection, schedule: Q01DX001 (ip), vehicle: carboxymethylcellulose (CMC)) turn out when `CC1=CC(C)C(=O)N(CC(C)N2CCCC2)C(C)=C1` (stereo not given) was run?
Answer: 1 of 6

Question: What about the survivor count (dose: 300.0 mg/kg/injection, schedule: Q01DX001 (ip), vehicle: carboxymethylcellulose (CMC)) of the same molecule?
Answer: 0 of 6

Question: What does the source list for `CCCCCCCCCCCCCCP(I)(N(C)C)(N(C)C)N(C)C`?
Answer: survivor count (dose: 6.25 mg/kg/injection, schedule: Q04DX002 (ip), vehicle: saline): 3 of 3; survivor count (dose: 12.5 mg/kg/injection, schedule: Q04DX002 (ip), vehicle: saline): 0 of 3; survivor count (dose: 25.0 mg/kg/injection, schedule: Q04DX002 (ip), vehicle: saline): 0 of 3; survivor count (dose: 100.0 mg/kg/injection, schedule: Q04DX002 (ip), vehicle: saline): 0 of 3; survivor count (dose: 200.0 mg/kg/injection, schedule: Q04DX002 (ip), vehicle: saline): 0 of 3; survivor count (dose: 400.0 mg/kg/injection, schedule: Q04DX002 (ip), vehicle: saline): 0 of 3

Question: `CCOC(=N)c1cn(C2OC(CO)C(O)C2O)c2ncnc(N)c12` (stereo not given) was tested. Which T/C (dose: 0.4 mg/kg/injection, schedule: Q01DX009 (ip), vehicle: saline with Tween-80) did it give?
Answer: 127 % of control

Question: And the T/C (dose: 0.4 mg/kg/injection, schedule: Q01DX009 (ip), vehicle: saline)?
Answer: 125 and 126 % of control

Question: And the survivor count (dose: 1.3 mg/kg/injection, schedule: Q01DX009 (ip), vehicle: saline)?
Answer: 3 of 6

Question: What about the survivor count (dose: 2.0 mg/kg/injection, schedule: Q01DX009 (ip), vehicle: saline) of the same molecule?
Answer: 5 of 6

Question: What about the survivor count (dose: 3.0 mg/kg/injection, schedule: Q01DX009 (ip), vehicle: saline) of the same molecule?
Answer: 6 of 6

Question: What about the survivor count (dose: 5.0 mg/kg/injection, schedule: Q01DX009 (ip), vehicle: saline) of the same molecule?
Answer: 4 of 6 and 6 of 6

Question: What about the survivor count (dose: 7.0 mg/kg/injection, schedule: Q01DX009 (ip), vehicle: saline) of the same molecule?
Answer: 2 of 6

Question: What about the survivor count [2] of the same molecule?
Answer: 1 of 6

Question: What about the survivor count (dose: 15.0 mg/kg/injection, schedule: Q01DX009 (ip), vehicle: saline) of the same molecule?
Answer: 0 of 6

Question: With `O=c1[nH]c(=O)c2nc[nH]c(=O)c2[nH]1` as the molecule, how does the survivor count (dose: 300.0 mg/kg/injection, schedule: Q01DX009 (ip), vehicle: Klucel (hydroxypropylcellulose) (HPC)) read?
Answer: 6 of 6

Question: With `COc1ccccc1/C=N\N=C(N/N=C/c1ccccc1OC)N/N=C/c1ccccc1OC` as the molecule, how does the survivor count (dose: 240.0 mg/kg/injection, schedule: Q01DX Z (oral), vehicle: methylcellulose (MC)) read?
Answer: 5 of 6

Question: And the survivor count (dose: 720.0 mg/kg/injection, schedule: Q01DX Z (ip), vehicle: methylcellulose (MC))?
Answer: 3 of 6

Question: And the survivor count (dose: 960.0 mg/kg/injection, schedule: Q01DX Z (ip), vehicle: methylcellulose (MC))?
Answer: 5 of 6

Question: How did the survivor count (dose: 200.0 mg/kg/injection, schedule: Q01DX001 (ip), vehicle: water) turn out when `CC(=O)C1=C(O)c2ccccc2C(=O)C1=O` was run?
Answer: 0 of 6

Question: What about the survivor count (dose: 400.0 mg/kg/injection, schedule: Q01DX001 (ip), vehicle: water) of the same molecule?
Answer: 0 of 6

Question: For `c1ccc(CN2CCCCc3ccccc32)cc1`, which survivor count [3] is on record?
Answer: 3 of 6

Question: With `C#CCOCC(O)CO` (stereo not given) as the molecule, how does the survivor count (dose: 25.0 mg/kg/injection, schedule: Q01DX009 (ip), vehicle: water) read?
Answer: 6 of 6

Question: And the survivor count (dose: 50.0 mg/kg/injection, schedule: Q01DX009 (ip), vehicle: water)?
Answer: 3 of 6

Question: What about the survivor count (dose: 100.0 mg/kg/injection, schedule: Q01DX009 (ip), vehicle: water) of the same molecule?
Answer: 5 of 6

Question: What about the survivor count (dose: 200.0 mg/kg/injection, schedule: Q01DX009 (ip), vehicle: water) of the same molecule?
Answer: 6 of 6

Question: And the survivor count (dose: 400.0 mg/kg/injection, schedule: Q01DX009 (ip), vehicle: water)?
Answer: 1 of 6

Question: `CC(=O)c1cc(I)c(O)c2ncccc12` was tested. Which survivor count (dose: 50.0 mg/kg/injection, schedule: Q04DX003 (ip), vehicle: saline with Tween-80) did it give?
Answer: 2 of 6

Question: What about the survivor count (dose: 100.0 mg/kg/injection, schedule: Q04DX003 (ip), vehicle: saline with Tween-80) of the same molecule?
Answer: 0 of 6

Question: What about the survivor count (dose: 200.0 mg/kg/injection, schedule: Q04DX003 (ip), vehicle: saline with Tween-80) of the same molecule?
Answer: 0 of 6

Question: What about the survivor count [3] of the same molecule?
Answer: 0 of 6

Question: With `CN(C)C(=O)c1cc(NC(=O)Nc2ccc(C3=NCCN3)cc2)cc(NC(=O)Nc2ccc(C3=NCCN3)cc2)c1` as the molecule, how does the T/C (dose: 120.0 mg/kg/injection, schedule: Q01DX Z (ip), vehicle: saline) read?
Answer: 136 % of control [5 of 6 alive]

Question: Which survivor count (dose: 400.0 mg/kg/injection, schedule: Q01DX009 (ip), vehicle: saline with Tween-80) does the source give for `CC(=N\O)/C(=N\O)C(=O)c1ccccc1` here?
Answer: 3 of 6

Question: Which survivor count (dose: 400.0 mg/kg/injection, schedule: Q01DX001 (ip), vehicle: Klucel (hydroxypropylcellulose) (HPC)) does the source give for `c1ccc2[nH]c(C(=C(c3nc4ccccc4[nH]3)c3nc4ccccc4[nH]3)c3nc4ccccc4[nH]3)nc2c1` here?
Answer: 6 of 6

Question: Which results are given for `FC(F)(F)c1ccc2c(c1)N(CCCN1CCN(C3CC3)CC1)c1ccccc1S2`?
Answer: T/C [2]: 125 % of control; T/C (dose: 20.0 mg/kg/injection, schedule: Q01DX009 (ip), vehicle: saline): 128 % of control [5 of 6 alive]; survivor count (dose: 40.0 mg/kg/injection, schedule: Q01DX009 (ip), vehicle: saline): 6 of 6; survivor count (dose: 75.0 mg/kg/injection, schedule: Q01DX009 (ip), vehicle: saline): 2 of 6; survivor count (dose: 150.0 mg/kg/injection, schedule: Q01DX009 (ip), vehicle: saline): 0 of 6; survivor count (dose: 300.0 mg/kg/injection, schedule: Q01DX009 (ip), vehicle: saline): 0 of 6

Question: Which survivor count (dose: 200.0 mg/kg/injection, schedule: Q04DX003 (ip), vehicle: saline) does the source give for `CCCCOc1ccc(N)cn1` here?
Answer: 6 of 6

Question: What about the survivor count [4] of the same molecule?
Answer: 0 of 6

Question: For `c1cc2c3c(c1)[I+]c1cccc(c1-3)[I+]2`, which survivor count (dose: 200.0 mg/kg/injection, schedule: Q01DX001 (ip), vehicle: saline) is on record?
Answer: 2 of 4

Question: What about the survivor count (dose: 400.0 mg/kg/injection, schedule: Q01DX001 (ip), vehicle: saline) of the same molecule?
Answer: 0 of 4

Question: With `COc1ccc(C)cc1NC(=O)Sc1ccc(Cl)cc1` as the molecule, how does the survivor count [1] read?
Answer: 1 of 3

Question: How did the survivor count [3] turn out when `O=c1c2ccccc2sc2c1ccc1c2ccc2c(=O)c3ccccc3sc21` was run?
Answer: 5 of 6

Question: Which survivor count (dose: 120.0 mg/kg/injection, schedule: Q01DX Z (ip), vehicle: methylcellulose (MC)) does the source give for `Cc1ccc(C(/C=C/c2ccccc2)=N\N=C(N)N)cc1` here?
Answer: 3 of 6

Question: What about the survivor count (dose: 360.0 mg/kg/injection, schedule: Q01DX Z (oral), vehicle: methylcellulose (MC)) of the same molecule?
Answer: 4 of 6

Question: How did the survivor count (dose: 200.0 mg/kg/injection, schedule: Q01DX001 (ip), vehicle: saline with Tween-80) turn out when `CN(CC(O)CN)c1ccc(Cl)cc1` (stereo not given) was run?
Answer: 2 of 6

Question: And the survivor count (dose: 400.0 mg/kg/injection, schedule: Q01DX001 (ip), vehicle: saline with Tween-80)?
Answer: 0 of 6

Question: With `CCCCCCCCCCCCNC1=C(Cl)C(=O)c2ccccc2C1=O` as the molecule, how does the survivor count (dose: 1.4 mg/kg/injection, schedule: Q01DX Z (ip), vehicle: methylcellulose (MC)) read?
Answer: 3 of 6

Question: `O=C(O)c1cc(Cl)c(Cl)cc1Cl` was tested. Which survivor count (dose: 200.0 mg/kg/injection, schedule: Q01DX009 (ip), vehicle: saline) did it give?
Answer: 3 of 6

Question: And the survivor count [4]?
Answer: 0 of 6
